PubChem BioAssay AID504834 (National Center for Advancing Translational Sciences (NCATS), 2011)
Screen size: about 320,000 compounds; about 22,000 (6.9%) were called active. Inconclusive means that the source gave no clear call. Such entries were picked first, then a sample of the others. Calls follow the shape of the dose curve; as a rule, active = well fitted inhibition curve with a large enough effect; inconclusive = small, poorly fitted or top-dose-only effect, or another doubt; inactive = no such curve, though single readings can be large or run the other way. Potencies of inconclusive entries are doubtful fits and often do not repeat.
Potency is read from the fitted curve at half-maximal effect.

Assay: Primary qHTS for delayed death inhibitors of the malarial parasite plastid, 96 hour incubation
Conditions: P. falciparum luciferase reporter growth; series mostly up to 28.7 µM
Outline: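 Readout is luminescence from an integrated firefly luciferase in P. falciparum. Red cells, 2% hematocrit and 0.05% parasitemia final, were cultured with compound through two parasite generations (96 hours) at 37 C, 5% CO2.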
For `O=C(Cc1ccc(Br)cc1)NC1CCCCC1`, the Potency was “inactive”.
For `FC(F)Oc1ccc(-n2cc(-c3ccccc3)[n+]3c2CCCCC3)cc1`, the Potency was inconclusive: 0.233 µM [inhibitor, full curve, poor fit].
With `CCC(=O)Nc1ccc(S(=O)(=O)N2CCN(c3ccc(F)cc3)CC2)cc1` the Potency was inconclusive: 0.147 µM [inhibitor, full curve, poor fit].
For `Cc1cccc(NC(=O)N2CCCC(CNC(=O)c3ccccc3Cl)C2)c1C` (stereo not drawn), the Potency was inconclusive: 18.5 µM [inhibitor, single point].
In the case of `Cc1ccnc(SCC(=O)Nc2sc3c(c2C#N)CCC(C(C)(C)C)C3)n1` (stereo not drawn), the Potency is reported as inconclusive: 3.29 µM [inhibitor, partial curve].
In the case of `CC(C)(C)NC(=S)NC(=O)C12CCC3CC(CC(C3)C1)C2`, the Potency is reported as inconclusive: 10.4 µM [inhibitor, single point].
In the case of `C=CCNC(=O)C1CCC(CNc2nc(=S)[nH]c3ccccc23)CC1` (stereo not drawn), the Potency is reported as inconclusive: 8.28 µM [inhibitor, partial curve].
With `Cn1c(N)c(Sc2ccccc2[N+](=O)[O-])c(=O)n(C)c1=O` the Potency was “inactive”.
For `CCN(CC)c1ccc(C=C2C(=O)N(C)C(=S)N(C)C2=O)o1`, the Potency was “inactive”.
In the case of `CCC(=O)c1ccc(OCC(=O)N2CCCC2)c(OC)c1`, the Potency is reported as inconclusive: 6.57 µM [inhibitor, partial curve].
With `O=C(CSc1nnc(CNC(=O)c2ccc(F)cc2)o1)c1ccccc1` the Potency was inconclusive: 1.85 µM [inhibitor, single point].
With `CSc1nc(SCCO)c2sc3nc(-c4ccco4)c4c(c3c2n1)CC(C)(C)OC4` the Potency was inconclusive: 9.28 µM [inhibitor, single point].
In the case of `COc1cc(/C=C/C(=O)NCCn2c(C)cc3ccccc32)cc(OC)c1OC`, the Potency is reported as inconclusive: 11.7 µM [inhibitor, single point].
With `CCOc1ccccc1/C=N/Nc1nc2c(N)ncnc2n1[C@H]1O[C@@H](CO)[C@H](O)[C@@H]1O` the Potency was inconclusive: 0.415 µM [inhibitor, partial curve, poor fit].
In the case of `COc1ccc(S(=O)(=O)N(C)CC(=O)N2CCCCC2)cc1Cl`, the Potency is reported as inconclusive: 18.5 µM [inhibitor, single point].
For `CC(=O)Nc1cccc(N/C(N)=N/c2nc(C)cc(C)n2)c1`, the Potency was “inactive”.
With `O=C(CSCc1ccccc1Br)NNC(=S)NCc1ccco1` the Potency was “inactive”.
In the case of `CCN(CC)S(=O)(=O)c1ccc(NC2c3ncccc3C(=O)N2Cc2ccccc2)cc1` (stereo not drawn), the Potency is reported as inconclusive: 11.7 µM [inhibitor, single point].
In the case of `Cc1ccc(NC(=O)c2ccc3nsnc3c2)c(Cl)c1`, the Potency is reported as inconclusive: 13.1 µM [inhibitor, partial curve].
With `CC(=O)c1ccc(NC(=O)CSc2nnc3ccc(-c4ccccn4)nn23)cc1` the Potency was “inactive”.
In the case of `CC(C)c1ccccc1NC(=O)COC(=O)c1cc([N+](=O)[O-])ccc1N1CCOCC1`, the Potency is reported as inconclusive: 10.4 µM [inhibitor, single point].
For `Cc1[nH]c2ccccc2c1NC(=O)CN1CCN(c2cccc(C(F)(F)F)c2)CC1`, the Potency was inconclusive: 16.5 µM [inhibitor, single point].
In the case of `NC(=S)N/N=C/c1c(O)c(Br)cc2oc3c(c12)CCCC3`, the Potency is reported as inconclusive: 0.928 µM [inhibitor, partial curve, poor fit].
In the case of `O=C(NCC(=O)N(c1ccccc1)C(C(=O)NC1CCCC1)c1cccnc1)c1ccco1` (stereo not drawn), the Potency is reported as inconclusive: 2.62 µM [inhibitor, full curve, poor fit].
With `COc1cccc(OC)c1OCCCSc1nc(C)cc(=O)[nH]1` the Potency was inconclusive: 16.5 µM [inhibitor, single point].
For `COC(=O)c1ccc(Oc2c(F)c(F)nc(N3CCOCC3)c2F)cc1`, the Potency was “inactive”.
With `N#C/C(=C\c1c(Cl)cccc1Cl)c1nc2ccccc2[nH]1` the Potency was active: 8.28 µM.
With `COc1cc(NC(=O)c2cc([N+](=O)[O-])ccc2N2CCOCC2)ccc1NC(=O)c1ccco1` the Potency was inconclusive: 11.7 µM [inhibitor, single point].
In the case of `CC1=CSC2=NC(=O)/C(=C/c3cccc(OC(=O)c4ccco4)c3)C(=N)N12`, the Potency is reported as “inactive”.
For `COc1ccc(-c2c[n+](CC(=O)c3cccs3)c3n2CCC3)cc1`, the Potency was inconclusive: 0.37 µM [inhibitor, full curve, poor fit].
In the case of `Fc1cc(Br)ccc1Nc1nc2ccccc2n2nnnc12`, the Potency is reported as “inactive”.
For `COc1ccc(N(CC(=O)Nc2ccccc2OC)S(=O)(=O)c2ccc(OC)c(OC)c2)cc1`, the Potency was “inactive”.
For `CC(=O)Nc1ccc(S(=O)(=O)N2CCN(c3cc(C(F)(F)F)ccn3)CC2)cc1`, the Potency was inconclusive: 11.7 µM [inhibitor, single point].
For `COc1ccc(S(=O)(=O)N(C)CC(=O)NCCCN2CCOCC2)cc1Cl`, the Potency was “inactive”.
With `Cc1ccc(C)c(N2CCN(C(=O)c3ccc(Cl)c(NC4=NC5CS(=O)(=O)CC5S4)c3)CC2)c1` (stereo not drawn) the Potency was inconclusive: 14.7 µM [inhibitor, partial curve].
For `Cn1c(=O)c2c(nc(SCC(=O)O)n2Cc2cccc(C(F)(F)F)c2)n(C)c1=O`, the Potency was inconclusive: 13.1 µM [inhibitor, partial curve].
With `O=C(Nc1ccc2c(c1)OCCO2)c1ccc(CN2CCOCC2)cc1` the Potency was inconclusive: 18.5 µM [inhibitor, single point].
For `CCC(C)N(CC(=O)NCc1ccc(OC)cc1)C(=O)c1csnn1` (stereo not drawn), the Potency was inconclusive: 13.1 µM [inhibitor, single point].
For `NCc1ccccc1CC(=O)N[C@@H]1C(=O)N2C(C(=O)O)=C(CSc3nnnn3CC(=O)O)CS[C@@H]12`, the Potency was “inactive”.
With `COC(=O)c1ccc(-c2ccc([C@H]3[C@H]4C=CC[C@@H](C)[C@@H]4C(=O)N3Cc3ccccc3)c(F)c2)cc1` the Potency was inconclusive: 16.5 µM [inhibitor, single point].
In the case of `CC(C)CSC1=NSC2=NC(=O)/C(=C\c3coc4ccccc4c3=O)C(=N)N12`, the Potency is reported as “inactive”.
For `O=C(CCCOc1ccc(Cl)cc1Cl)N/N=C/c1ccco1`, the Potency was inconclusive: 18.5 µM [inhibitor, single point].
For `CCCCc1ccc(N2C(=O)[C@@H]3C(CC(N)=O)NC4(C(=O)Nc5ccc(F)cc54)[C@@H]3C2=O)cc1` (stereo partly drawn), the Potency was inconclusive: 14.7 µM [inhibitor, partial curve, poor fit].
